Reference: patent US7781411B2, “Derivatives of avermectin, avermectin monosaccharide and avermectin aglycone” (Syngenta Crop Protection, Inc., priority 2004, dated 2010)
Some of these results come from one statement about several compounds together.

Columns and labels:
Type in all cases: in vivo
Tetranychus urticae = test: Activity against Tetranychus urticae (sprayed bean plants); conditions: 12.5 ppm spray on bean plants, mixed population, 25° C., 6 days
Heliothis virescens = test: Activity against Heliothis virescens (eggs on filter paper); conditions: 12.5 ppm test solution, 0.8 ml on eggs on filter paper, 6 days
Spodoptera littoralis [1] = test: Activity against Spodoptera littoralis (sprayed soya bean plants); conditions: 12.5 ppm spray on soya bean plants, first stage caterpillars, 3 days
[2] = tested on: Frankliniella occidentalis; test: Activity against Frankliniella occidentalis (bean leaf discs); conditions: 12.5 ppm spray on bean leaf discs, mixed population, 10 days
Plutella xylostella = test: Activity against Plutella xylostella caterpillars (sprayed cabbage plants); conditions: 12.5 ppm spray on cabbage plants, third stage caterpillars, 3 days
Spodoptera littoralis [3] = test: Activity against Spodoptera littoralis, systemic (maize seedlings in test solution); conditions: maize seedlings in 12.5 ppm test solution 6 days, larvae on cut leaves, 4 days later
Diabrotica balteata = test: Activity against Diabrotica balteata (sprayed maize seedlings); conditions: 12.5 ppm spray on maize seedlings, second stage larvae, 6 days

Measured: reduction in the pest population

CCC(C)C1OC2(C=CC1C)CC1CC(CC=C(C)C(OC3OC(C)C(OC)C(OC)C3OC)C(C)C=CC=C3COC4C(O)C(C)=CC(C(=O)O1)C34O)O2 [Compound P1.1, 13-O-(2′,3′,4′-tri-O-methyl-β-L-rhamnopyranosyl)-avermectin B1 Aglycone]
more than 80%: Tetranychus urticae

CCC(C)C1OC2(C=CC1C)CC1CC(CC=C(C)C(OC3CC(OC)C(OC4OC(C)C(NC)C(OC)C4C)C(C)O3)C(C)C=CC=C3COC4C(O)C(C)=CC(C(=O)O1)C34O)O2 [Compound P13.4, 2″-(R)-methyl-3″-epi-4″-desoxy-4″-(S)-methylamino-avermectin B1]
not listed: Diabrotica balteata
more than 80%: all other assays above

CCC(C)C1OC2(C=CC1C)CC1CC(CC=C(C)C(OC3CC(OC)C(OC4OC(C)C(N(C)C(C)=O)C(OC)C4C)C(C)O3)C(C)C=CC=C3COC4C(O)C(C)=CC(C(=O)O1)C34O)O2 [Compound P13.12, 2″-(R)-methyl-3″-epi-4″-desoxy-4″-(S)-(acetyl-methyl-amino)-avermectin B1]
not listed: Spodoptera littoralis [3]
more than 80%: all other assays above
